{
  "sequences": {"note": "Amino acid sequences for entries named in this document (tags omitted).", "UniProt Q7L5N1": "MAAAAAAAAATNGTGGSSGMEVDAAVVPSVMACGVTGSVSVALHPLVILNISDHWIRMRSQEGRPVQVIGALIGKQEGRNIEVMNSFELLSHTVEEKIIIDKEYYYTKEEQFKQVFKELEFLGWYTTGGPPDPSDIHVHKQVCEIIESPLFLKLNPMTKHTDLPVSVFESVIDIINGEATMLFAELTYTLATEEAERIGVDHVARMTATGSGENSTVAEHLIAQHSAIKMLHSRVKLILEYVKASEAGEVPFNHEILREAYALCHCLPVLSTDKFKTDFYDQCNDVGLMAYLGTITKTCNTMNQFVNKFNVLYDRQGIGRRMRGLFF"},
  "source": "paper PMC11005689",
  "binders": {"B1": {"name": "hydroxymethylglutaryl‐CoA synthase 1 (HMGCS1) (protein, UniProt Q01581 1-520)", "chain": "MPGSLPLNAEACWPKDVGIVALEIYFPSQYVDQAELEKYDGVDAGKYTIGLGQAKMGFCTDREDINSLCMTVVQNLMERNNLSYDCIGRLEVGTETIIDKSKSVKTNLMQLFEESGNTDIEGIDTTNACYGGTAAVFNAVNWIESSSWDGRYALVVAGDIAVYATGNARPTGGVGAVALLIGPNAPLIFERGLRGTHMQHAYDFYKPDMLSEYPIVDGKLSIQCYLSALDRCYSVYCKKIHAQWQKEGNDKDFTLNDFGFMIFHSPYCKLVQKSLARMLLNDFLNDQNRDKNSIYSGLEAFGDVKLEDTYFDRDVEKAFMKASSELFSQKTKASLLVSNQNGNMYTSSVYGSLASVLAQYSPQQLAGKRIGVFSYGSGLAATLYSLKVTQDATPGSALDKITASLCDLKSRLDSRTGVAPDVFAENMKLREDTHHLVNYIPQGSIDSLFEGTWYLVRVDEKHRRTYARRPTPNDDTLDEGVGLVHSNIATEHIPSPAKKVPRLPATAAEPEAAVISNGEH"}},
  "biological_target": "CSN6 (human (endogenous in Huh-7)) (UniProt Q7L5N1)",
  "assay": "affinity purification with mass spectrometry; CSN6 immunoprecipitated from Huh7 cells in the presence of MG132 for 8 h; mass spectrometry of associated proteins",
  "note": "No constants are given. Whether binding was seen depends on the method and setting. Binding seen in cells or lysates may run through a third protein. Here binding means that the protein was enriched with, or labelled near, the bait; the list need not be complete.",
  "data": [
    {"binder": "B1", "values": [
      {"measurement": "binding", "value": "binds"}
    ]}
  ]
}
